Results on 19 substances are retold here after patent US11230581B2, “Peptides and combination of peptides for use in immunotherapy against ovarian cancer and other cancers” (Immatics Biotechnologies GmbH, priority 2015, dated 2022).

For some of these results: Expression values are those of the mRNA of the gene that encodes the peptide; a gene is named only where it was looked up.

One data set has as its system additional tumor types. Kind of data set: LC-MS detection and over-presentation of the peptides on additional tumor types, cell lines and primary cultures. Set-up: species or system human. To be noted: for Other relevant organs/ cancerous diseases: Table 4A: additional tumor types on which the peptide was found, over-presented on more than 5% of measured tumor samples, or presented on more than 5% with ratio of geometric means tumor vs normal tissues larger than 3.

The subject of the next data set is ovarian cancer samples. In words: Relative LC-MS quantitation of HLA-presented peptides: presentation and over-presentation on ovarian cancer vs a panel of normal tissues (presentation score). Set-up: species or system human; key: +++: very highly over-presented on tumors compared to a panel of normal tissues; ++: highly over-presented on tumors compared to a panel of normal tissues; +: over-presented on tumors compared to a panel of normal tissues. To be noted: over-presentation on tumors compared to a panel of normal tissues.

Data set [1] has as its system source genes of the peptides (mRNA) in ovarian cancer vs normal tissues. In words: Expression profiling of genes encoding the peptides (RNAseq, expression score). Also on record: species or system human; key: +++: very highly over-expressed in tumors compared to a panel of normal tissues; ++: highly over-expressed in tumors compared to a panel of normal tissues; +: over-expressed in tumors compared to a panel of normal tissues. To be noted: source gene over-expression in tumors compared to a panel of normal tissues.

[2] abbreviates: amendment of Table 4: additional tumor types showing over-presentation (including specific presentation) on more than 5% of measured tumor samples, or presentation on more than 5% with ratio of geometric means tumor vs normal tissues larger than 3.
The mark [3] stands for this setting: additional tumor types with over-presentation on more than 5% of the measured tumor samples, or presentation on more than 5% with ratio of geometric means tumor vs normal tissues larger than 3.

Take “126: peptide found in MCM2 (gene looked up) (VLAYFLPEA; listed as Homo sapiens) [compound 126]”: the “Other relevant organs/ cancerous diseases” value in the data set with additional tumor types was “NSCLC, SCLC, CRC, PC, Leukemia, Esophageal Cancer, Uterine Cancer”. In the data set on additional tumor types (setting [2]), the Additional organs/cancerous diseases result was “CLL, BRCA, Urinary Bladder Cancer, Gallbladder Cancer and Bile Duct Cancer, AML, NHL, HNSCC”. Besides, in the data set with ovarian cancer samples, the “Peptide Presentation (presentation score)” value (“Peptide Presentation” for short) is “+”. Moreover, the “Gene Expression (expression score)” value in data set [1] is given as “+”.
On to “171: peptide found in KLK7 (gene looked up) (LLLPLQILL; listed as Homo sapiens) [compound 171]”, for which the “Other relevant organs/ cancerous diseases” value in the data set on additional tumor types was “SCLC”. For the same substance, the Additional organs/cancerous diseases entry with additional tumor types (setting [2]) is listed as “HNSCC”. Moreover, the “Peptide Presentation” value with ovarian cancer samples is “+++”. Also, the “Gene Expression (expression score)” value in data set [1] is “+++”.
For the substance “173: peptide found in KIF15 (gene looked up) (LLDSASAGLYL; listed as Homo sapiens) [compound 173]”, the Additional organs/cancerous diseases result in the data set with additional tumor types (setting [2]) is “SCLC, Uterine Cancer, AML, NHL”. In the data set on ovarian cancer samples, the “Peptide Presentation” value is “+++”. Moreover, the “Gene Expression (expression score)” value in data set [1] is on record as “+++”.
Regarding “183: peptide found in RNF213 (gene looked up) (FGLDLVTEL; listed as Homo sapiens) [compound 183]”, the “Other relevant organs/ cancerous diseases” value in the data set on additional tumor types was “NSCLC, SCLC, RCC, GC, PC, Leukemia, BrCa, Melanoma”. Further, in the data set on additional tumor types (setting [2]), the Additional organs/cancerous diseases result is listed as “CLL, Urinary Bladder Cancer, Uterine Cancer, AML, NHL, HNSCC”. Further, the “Peptide Presentation” value with ovarian cancer samples is “++”. In addition, the “Gene Expression (expression score)” value in data set [1] is “++”.
With “184: peptide found in RNF213 (gene looked up) (YLMDINGKMWL; listed as Homo sapiens) [compound 184]”, the “Other relevant organs/ cancerous diseases” value in the data set with additional tumor types was “NSCLC, SCLC, Melanoma”. For the same substance, the Additional organs/cancerous diseases result in the data set with additional tumor types (setting [2]) is “CLL, Uterine Cancer, Gallbladder Cancer and Bile Duct Cancer, NHL”. In addition, the “Peptide Presentation” value in the data set with ovarian cancer samples was “+++”. For the same substance, in data set [1], the “Gene Expression (expression score)” value is given as “++”.
Regarding “193: peptide found in CLSPN (gene looked up) (QLLDADGFLNV; listed as Homo sapiens) [compound 193]”, the Additional organs/cancerous diseases result in the data set on additional tumor types (setting [3]) is on record as “SCLC, NHL”. For the same substance, the “Peptide Presentation” value in the data set with ovarian cancer samples was “+++”. Moreover, the “Gene Expression (expression score)” value in data set [1] is recorded as “+++”.
On to “194: peptide found in SLC28A3 (gene looked up) (ALPLFVITV; listed as Homo sapiens) [compound 194]”, for which the Additional organs/cancerous diseases result with additional tumor types (setting [3]) was “AML, HNSCC”. For the same substance, the “Peptide Presentation” value with ovarian cancer samples was “+++”. Also, the “Gene Expression (expression score)” value in data set [1] is given as “++”.
Regarding “210: peptide found in UNG (gene looked up) (LLLNAVLTV; listed as Homo sapiens) [compound 210]”, the “Other relevant organs/ cancerous diseases” value in the data set on additional tumor types was “Urinary bladder Cancer”. Also, the Additional organs/cancerous diseases entry with additional tumor types (setting [3]) was “SCLC, AML, NHL”. Further, the “Peptide Presentation” value in the data set on ovarian cancer samples was “++”. Also, the “Gene Expression (expression score)” value in data set [1] is “+”.
In the case of “230: peptide found in CCNA2 (gene looked up) (ILVDWLVEV; listed as Homo sapiens) [compound 230]”, the “Other relevant organs/ cancerous diseases” value with additional tumor types is “Melanoma, Endometrium”. The Additional organs/cancerous diseases entry with additional tumor types (setting [3]) was “Esophageal Cancer, Gallbladder Cancer and Bile Duct Cancer, AML, NHL, HNSCC”. Further, the “Peptide Presentation” value with ovarian cancer samples is reported as “+++”. Also, the “Gene Expression (expression score)” value in data set [1] is reported as “+++”.
“235: peptide found in CCNE1 (gene looked up) (YLNDLHEVLL; listed as Homo sapiens) [compound 235]”: the “Other relevant organs/ cancerous diseases” value in the data set with additional tumor types is “Esophageal Cancer, Uterine Cancer, Gallbladder Cancer, Bile Duct Cancer”. Besides, the Additional organs/cancerous diseases entry with additional tumor types (setting [3]) is recorded as “NSCLC, Urinary Bladder Cancer”. Further, the “Peptide Presentation” value with ovarian cancer samples was “+++”. Also, the “Gene Expression (expression score)” value in data set [1] is “++”.
Take “372: peptide found in RNF213 (gene looked up) (TMLLNIPLV; listed as Homo sapiens) [compound 372]”: the “Other relevant organs/ cancerous diseases” value in the data set on additional tumor types is listed as “SCLC, HCC, PC, PrC, BrCa”. In the data set with additional tumor types (setting [3]), the Additional organs/cancerous diseases result is “CLL, Gallbladder Cancer and Bile Duct Cancer, AML, NHL”. Moreover, in the data set on ovarian cancer samples, the “Peptide Presentation” value was “+++”. In addition, the “Gene Expression (expression score)” value in data set [1] is recorded as “++”.
For “432: peptide found in ABCC4 (gene looked up) (TLIEESAKV; listed as Homo sapiens) [compound 432]”, in the data set on additional tumor types, the “Other relevant organs/ cancerous diseases” value was “Prostate”. Also, the “Peptide Presentation” value in the data set with ovarian cancer samples is listed as “+++”. Moreover, the “Gene Expression (expression score)” value in data set [1] is reported as “+”.
As to “443: peptide found in HDGF (gene looked up) (GLWEIENNPTV; listed as Homo sapiens) [compound 443]”, the “Other relevant organs/ cancerous diseases” value with additional tumor types is “NSCLC, SCLC, HCC, PC, PrC, Melanoma”. Moreover, the Additional organs/cancerous diseases result in the data set on additional tumor types (setting [3]) is “Gallbladder Cancer and Bile Duct Cancer”. In the data set with ovarian cancer samples, the “Peptide Presentation” value is reported as “++”. Also, in data set [1], the “Gene Expression (expression score)” value is “+”.
With “446: peptide found in EYA2 (gene looked up) (QLIPALAKV; listed as Homo sapiens) [compound 446]”, the “Other relevant organs/ cancerous diseases” value with additional tumor types is recorded as “NSCLC, SCLC, PrC, BrCa, MCC, Uterine Cancer”. Also, in the data set with additional tumor types (setting [3]), the Additional organs/cancerous diseases result is reported as “Brain Cancer”. For the same substance, the “Peptide Presentation” value in the data set on ovarian cancer samples is recorded as “+++”. Also, the “Gene Expression (expression score)” value in data set [1] is listed as “+++”.
For “456: peptide found in NUP205 (gene looked up) (LLIGHLERV; listed as Homo sapiens) [compound 456]”, the Additional organs/cancerous diseases entry in the data set on additional tumor types (setting [3]) was “BRCA, AML, NHL, HNSCC”. Moreover, the “Peptide Presentation” value with ovarian cancer samples was “++”. The “Gene Expression (expression score)” value in data set [1] is listed as “+”.
Consider “465: peptide found in KIFC1 (gene looked up) (QLCDLNAEL; listed as Homo sapiens) [compound 465]”, for which the “Other relevant organs/ cancerous diseases” value in the data set on additional tumor types is listed as “HCC, Esophageal Cancer”. Besides, the Additional organs/cancerous diseases entry in the data set on additional tumor types (setting [3]) is recorded as “SCLC, Melanoma, AML, HNSCC”. Also, the “Peptide Presentation” value in the data set with ovarian cancer samples is “+++”. In data set [1], the “Gene Expression (expression score)” value is “++”.
For “509: peptide found in CANX (gene looked up) (FLFDTKPLIV; listed as Homo sapiens) [compound 509]”, the Additional organs/cancerous diseases result in the data set on additional tumor types (setting [3]) is listed as “CLL”. Further, the “Peptide Presentation” value with ovarian cancer samples is on record as “+++”. Besides, the “Gene Expression (expression score)” value in data set [1] is given as “+”.
For the substance “551: peptide found in NCAPD3 (gene looked up) (KLYESLLPFA; listed as Homo sapiens) [compound 551]”, in the data set with additional tumor types, the “Other relevant organs/ cancerous diseases” value was “SCLC, HCC, PrC, Melanoma”. Besides, the Additional organs/cancerous diseases entry with additional tumor types (setting [3]) was “CLL, BRCA, Urinary Bladder Cancer, Gallbladder Cancer and Bile Duct Cancer, AML, NHL, HNSCC”. Also, in the data set with ovarian cancer samples, the “Peptide Presentation” value was “++”. The “Gene Expression (expression score)” value in data set [1] is listed as “+”.
Consider “588: peptide found in RNF213 (gene looked up) (SLLPLSHLV; listed as Homo sapiens) [compound 588]”, for which the “Other relevant organs/ cancerous diseases” value in the data set on additional tumor types is listed as “Melanoma, Esophageal Cancer”. Moreover, the Additional organs/cancerous diseases entry in the data set with additional tumor types (setting [3]) was “CLL, Gallbladder Cancer and Bile Duct Cancer, AML, NHL, HNSCC”. In addition, in the data set with ovarian cancer samples, the “Peptide Presentation” value is “+”. Also, the “Gene Expression (expression score)” value in data set [1] is “+”.
